Data reported in paper PMC10319584.
Results are given in words; binding and its absence hold for the method and conditions named. Binding seen in cells or lysates may run through a third protein. Some entries that bind do so weakly or less than the wild type. For some assays here: Where a sequence is shown, tags or fusion partners need not be part of it.

How the values were obtained:
[1] = target: T1, Fra-1-D1 (1-107 aa) (UniProt P15407); assay: co-IP; SGC7901 cells expressing full length Fra-1 or HA-tagged D1, D2, D3; IP-HA; western blot
T1 sequence: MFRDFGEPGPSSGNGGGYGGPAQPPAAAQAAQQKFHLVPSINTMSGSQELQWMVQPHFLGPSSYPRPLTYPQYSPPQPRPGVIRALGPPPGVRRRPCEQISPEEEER

[2] = target: T2, Fra-1-D2 (1-127 aa) (UniProt P15407); assay: as above
T2 sequence: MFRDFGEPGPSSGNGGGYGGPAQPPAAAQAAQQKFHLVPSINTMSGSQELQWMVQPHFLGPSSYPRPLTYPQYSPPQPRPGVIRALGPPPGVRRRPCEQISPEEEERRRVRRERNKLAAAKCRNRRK

[3] = target: T3, Fra-1-D3 (107-271 aa) (UniProt P15407); assay: as above
T3 sequence: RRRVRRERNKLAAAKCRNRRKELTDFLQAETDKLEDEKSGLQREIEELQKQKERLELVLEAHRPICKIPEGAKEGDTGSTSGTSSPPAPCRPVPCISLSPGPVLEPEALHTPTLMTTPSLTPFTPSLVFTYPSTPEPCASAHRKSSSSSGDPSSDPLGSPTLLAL

[4] = target: T4, Fra-1-FL (full length Fra-1 of the domain-mapping IP) (UniProt P15407); assay: as above
T4 sequence: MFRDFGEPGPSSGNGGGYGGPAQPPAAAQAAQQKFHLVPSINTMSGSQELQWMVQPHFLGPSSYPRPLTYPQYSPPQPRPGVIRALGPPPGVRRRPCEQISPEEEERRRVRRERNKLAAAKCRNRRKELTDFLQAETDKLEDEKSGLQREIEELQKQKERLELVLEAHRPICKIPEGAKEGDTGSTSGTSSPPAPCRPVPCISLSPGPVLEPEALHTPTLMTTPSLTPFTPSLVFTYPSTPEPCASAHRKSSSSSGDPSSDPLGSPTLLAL

[5] = target: T5, FLAG-Fra-1 (Fos-related antigen 1) (UniProt P15407); assay: co-IP; SGC7901 cell lysate, IP lysis buffer, protein A+G beads, 4°C overnight; FLAG lane (proteins binding to Fra-1) against IgG lane; western blot for 14-3-3 family members
T5 sequence: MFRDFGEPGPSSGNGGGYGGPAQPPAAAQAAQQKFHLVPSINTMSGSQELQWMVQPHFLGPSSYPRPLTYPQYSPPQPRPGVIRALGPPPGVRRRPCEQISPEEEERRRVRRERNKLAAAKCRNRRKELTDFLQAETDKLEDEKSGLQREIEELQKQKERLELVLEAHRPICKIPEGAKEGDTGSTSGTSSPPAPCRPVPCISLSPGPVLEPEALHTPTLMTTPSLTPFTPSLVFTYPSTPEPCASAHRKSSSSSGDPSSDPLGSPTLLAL

Measured: binding

B1: tyrosine 3-monooxygenase/tryptophan 5-monooxygenase activation protein eta (YWHAH) (protein, UniProt Q04917 1-246)
chain: MGDREQLLQRARLAEQAERYDDMASAMKAVTELNEPLSNEDRNLLSVAYKNVVGARRSSWRVISSIEQKTMADGNEKKLEKVKAYREKIEKELETVCNDVLSLLDKFLIKNCNDFQYESKVFYLKMKGDYYRYLAEVASGEKKNSVVEASEAAYKEAFEISKEQMQPTHPIRLGLALNFSVFYYEIQNAPEQACLLAKQAFDDAIAELDTLNEDSYKDSTLIMQLLRDNLTLWTSDQQDEEAGEGN
binds: all assays above
